Consider 60 compounds from PubChem BioAssay AID493014 (National Center for Advancing Translational Sciences (NCATS), 2011).

Some of the results follow. These are further read-outs of the screen, such as a control signal, another cell line or another target. No call is given for them. Compounds called inactive in the main read-out are mostly missing here. Words in brackets tell the shape of the fitted curve; partial curves, single points and poor fits give uncertain potencies.

A short description of the assay: qHTS Assay to Find Inhibitors of Chronic Active B-Cell Receptor Signaling. Conditions: ABC-DLBCL IkBa-CBG/CBR reporter, luminescence ratio (green luciferase fused to IkBa over red control in TMD8 lymphoma cells), 4 h. The method in brief:
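Concentration-response series (up to 46 uM) were applied to TMD8 dual-reporter cells for 4 h at 37C with doxycycline. Green/red ratio, after filter-overlap correction, defined %Activity; red signal alone was normalised to basal cells and zero luminescence.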
For orientation: qHTS replaces the single test concentration by a dilution series.

Where [1] appears, read: measured here: CBR red luminescence, cell number.
[2] abbreviates: measured here: IkBa-CBG green luminescence.

For `CN(C)c1nc(Cl)nc(NCCOc2ccccc2)n1`, under setting [1], the AC50 was 6.51 µM [rising, partial curve]. Regarding `O=C(Nc1nnc(-c2cccnc2)o1)c1ccccc1Cl`, the concentration at half-maximal activity (AC50) under setting [1] was 28.2 µM [falling, partial curve, poor fit]. The same measure, in the same setting: as for `OCCNCc1c(OCc2ccc(Cl)cc2)ccc2ccccc12`, the figure is 35.5 µM [falling, single point]. `O=C(NNC(=S)NC(=O)c1ccccc1)c1ccc(O)cc1`: under setting [1], the AC50 was 10 µM [falling, partial curve, poor fit]. Same read-out and setting: next, `CN(CC(=O)Nc1ccccc1Cl)C(=O)Cn1nnc(-c2ccc(F)cc2)n1`: 9.2 µM [rising, partial curve]; `Cc1ccc(C(=O)Nc2ccc3c(c2)OCCO3)c(C)c1`: 6.31 µM [rising, partial curve, poor fit]; `CCCSc1nc2sc3c(c2c(=O)n1-c1ccc(OC)cc1)CCN(C)C3`: 12.6 µM [rising, single point].

With `Cc1cc(OC(=O)c2c(F)cc(F)cc2F)nc(C)n1`, the AC50 under setting [1] is 0.562 µM [rising, full curve, poor fit].

`Cc1ccc(NC(=O)CSc2nnc(COc3ccc(C#N)cc3)n2-c2ccccc2)cc1C`: the concentration at half-maximal activity (AC50) under setting [1] is 11.2 µM [falling, single point]. Turning to `COc1ccc(N2CCN(c3oc(-c4ccc(OC)c(OC)c4)nc3C#N)CC2)cc1`, the AC50 under setting [1] was 18.4 µM [rising, single point].

Regarding `COc1cccc(-c2nnc3sc(C4CCCCC4)nn23)c1`, the AC50 under setting [1] was 10.3 µM [falling, single point]. The same measure, in the same setting: next, `Cn1c(/C=C/c2ccc(Cl)cc2)nc2ccccc2c1=O`: 0.316 µM [rising, full curve, poor fit]; `CN(Cc1cnn(C)c1)Cc1nc(-c2ccc(Cl)cc2)no1`: 12.6 µM [rising, partial curve]; `CCc1c(C)sc(NC(=O)c2cc(-c3ccco3)on2)c1C#N`: 31.6 µM [falling, single point]. The same measure, in the same setting: next, `CC1CCN(S(=O)(=O)c2cccc(-c3cn4cc(Cl)ccc4n3)c2)CC1`: 6.51 µM [falling, single point]; `COC(=O)c1ccc(NC(=O)c2ccc(C)cc2)o1`: 15.8 µM [falling, partial curve, poor fit]. For `O=C(Nc1ccccc1F)NC1CCCc2ccccc21` (stereo unspecified), under setting [1], the concentration at half-maximal activity (AC50) was 0.0891 µM [falling, full curve, poor fit]. For `O=C(CSc1ccc(-c2nc3ccccc3[nH]2)cn1)Nc1ccc(S(=O)(=O)NC2CC2)cc1`, the AC50 under setting [1] was 20.6 µM [falling, partial curve, poor fit].

On to `COc1ccccc1-c1cc(C(F)(F)F)nc(S(=O)(=O)CCCC(=O)N2CCOCC2)n1`, for which the AC50 reads like this: under setting [1], 3.66 µM [falling, full curve]; under setting [2], 3.66 µM [rising, partial curve, poor fit]. In the case of `CCN(CC)C(=O)Nc1c(C)n(C)n(-c2ccccc2)c1=O`, the AC50 under setting [1] was 20.6 µM [rising, partial curve, poor fit]. On to `CC[C@H]1CN2CCc3cc(OC)c(OC)cc3[C@@H]2C[C@@H]1C[C@H]1NCCc2cc(OC)c(OC)cc21`, for which the half-maximal activity concentration (AC50) is 0.164 µM [falling, full curve] under setting [1] and 0.291 µM [rising, full curve] under setting [2].

As for `O=C(Nc1ccncc1)c1ccc(-c2ccccc2)cc1`, the AC50 under setting [1] is 2.82 µM [falling, single point]. In the case of `O=C(N/N=C/c1ccco1)C1CC1(c1ccccc1)c1ccccc1` (stereo unspecified), the half-maximal activity concentration (AC50) reads like this: under setting [1], 29.1 µM [falling, single point]; under setting [2], 23.1 µM [rising, partial curve, poor fit]. As for `O=S(=O)(Nc1ccc(Cl)cn1)c1cnc(Cl)c(Br)c1`, the concentration at half-maximal activity (AC50) under setting [1] was 3.98 µM [rising, single point].

For the compound `Cc1cc(C)n2cc(CSc3nnnn3-c3ccccc3)nc2n1`, the AC50 under setting [1] was 11.2 µM [falling, partial curve, poor fit]. For the compound `CC1OC(O[C@H]2CC[C@]3(C)C4C=C[C@]56OC[C@@]7(CC[C@@H](C)[C@H](C)C75)[C@H](O)C[C@@]6(C)[C@]4(C)CC[C@H]3C2(C)C)C(OC2OC(CO)C(O)C(O)C2OC2OCC(O)C(O)C2O)C(O)C1O` (stereo partly specified), the AC50 was 35.5 µM [falling, single point] under setting [1] and 31.6 µM [rising, partial curve, poor fit] under setting [2]. Take `Cc1csc(NC(=O)c2cc3c(s2)CCCC3)n1`: the AC50 under setting [1] is 4.47 µM [falling, full curve, poor fit]. `Oc1c(C=Nc2cccnc2)sc2ccccc12`: under setting [1], the AC50 is 9.2 µM [falling, partial curve]. Same read-out and setting: as for `O=c1[nH]c2ccccc2cc1CN(Cc1ccco1)S(=O)(=O)c1ccccc1`, the figure is 2.82 µM [falling, full curve, poor fit]; as for `COc1ccc(C(=O)Nc2ccc([N+](=O)[O-])cn2)cc1OC`, 23.1 µM [falling, single point]. With `COc1ccc(NC(=O)c2cc3c(-c4ccc(OC)c(OC)c4)nn(C)c3s2)cc1OC`, the AC50 under setting [1] is 0.259 µM [rising, full curve, poor fit]. The same measure, in the same setting: as for `Cc1noc(NC(=O)c2cccc(Cl)c2Cl)c1C#N`, the figure is 11.2 µM [rising, partial curve, poor fit]; as for `COc1cc(OC)cc(C(=O)NC(C(=O)NCCN(C)C)C23CC4CC(CC(C4)C2)C3)c1` (stereo unspecified), 1.78 µM [falling, partial curve, poor fit]. For `NNC(=O)CSc1nnc(-c2ccccc2)n1-c1ccccc1`, under setting [1], the AC50 was 11.2 µM [falling, partial curve, poor fit].

As for `Cc1ccccc1OCCNC(=O)c1ccc2ccccc2n1`, the AC50 under setting [1] was 1.84 µM [rising, partial curve]. The same measure, in the same setting: as for `Cn1c(=O)c2c(SCC(=O)NCC3CCCO3)nc(-c3cccs3)nc2n(C)c1=O` (stereo unspecified), the figure is 0.00461 µM [falling, full curve, poor fit]; as for `CCOC(=O)c1ccc(N2CCN(c3cccc(OC)c3)CC2)c(NC(=O)Nc2ccc(OCC)cc2)c1`, 0.708 µM [rising, full curve, poor fit]. In the case of `CCCOc1ccccc1C1CC(=O)Nc2cc3c(cc21)OCO3` (stereo unspecified), the AC50 under setting [2] was 16.4 µM [falling, partial curve]. Consider `COc1ccc(OCC(O)CNC(=O)c2cccs2)cc1` (stereo unspecified), for which the AC50 under setting [1] was 12.6 µM [rising, partial curve, poor fit]. The same measure, in the same setting: as for `CCn1c(SCC(=O)Nc2ccc(OCc3ccccc3)cc2)nnc1-c1ccco1`, the figure is 35.5 µM [falling, single point]. Consider `C/C(=N\N=C1/NC(=O)C(C)S1)c1ccc([N+](=O)[O-])cc1` (stereo unspecified), for which, under setting [1], the AC50 is 14.6 µM [rising, partial curve]. On to `CCOc1cccc(NC(=O)/C(C#N)=C\c2cn(CC(=O)O)c3ccccc23)c1`, for which the AC50 under setting [1] was 2.82 µM [falling, partial curve, poor fit].

With `COc1cc(C(C)=O)ccc1OCCN1CCC(Cc2ccccc2)CC1`, the half-maximal activity concentration (AC50) under setting [1] was 10 µM [falling, partial curve, poor fit]. The same measure, in the same setting: next, `COc1ccc(/C=N/NC(=O)c2cccnc2)cc1CSc1ccccn1`: 3.16 µM [falling, full curve, poor fit]; `Cc1noc(NS(=O)(=O)c2ccc(NC(=O)/C=C/c3ccc(Br)cc3)cc2)c1C`: 10 µM [falling, partial curve, poor fit].

As for `S=C(NC1CCCCC1)N1CCOCCOCCN(C(=S)NC2CCCCC2)CCOCC1`, the AC50 under setting [1] is 35.5 µM [falling, single point]. Consider `O=C(O)c1cccc(-c2ccc(/C=N/NC(=O)C3COc4ccccc4O3)o2)c1` (stereo unspecified), for which the AC50 under setting [1] is 35.5 µM [falling, single point] and the AC50 under setting [2] was 6.31 µM [rising, partial curve, poor fit]. Regarding `O=C(c1ccccc1)c1cccc(NC(=O)c2ccc(Br)o2)c1`, the AC50 under setting [1] was 29.1 µM [falling, single point]. Turning to `O=C(NC(=S)Nc1ccccn1)c1cncc(Br)c1`, the AC50 is 0.517 µM [rising, full curve, poor fit] under setting [1] and 29.1 µM [falling, single point] under setting [2].

Turning to `COc1ccc(-c2cc(-c3n[nH]c(=S)n3-c3ccccc3OC)[nH]n2)cc1`, under setting [1], the AC50 was 3.66 µM [falling, partial curve, poor fit]. On the same count and under the same terms, as for `CCc1ccc(CN(C)C(=O)C2CCC(=O)N(Cc3cccc(OC)c3)C2)nc1` (stereo unspecified), the figure is 35.5 µM [falling, single point]; as for `O=C(COc1ccccc1-c1ccccc1)NCc1ccco1`, 7.94 µM [falling, partial curve, poor fit]. Still for that read-out and setting: as for `COc1cccc(NC(=O)C(C)Oc2ccccc2)c1` (stereo unspecified), the figure is 22.4 µM [rising, single point]; as for `COc1cc(NC(=O)c2onc(C)c2Cl)cc(OC)c1OC`, 5.62 µM [falling, partial curve, poor fit]; as for `CC(C)Cn1c(N)c(S(=O)(=O)c2cccs2)c2nc3ccccc3nc21`, 9.2 µM [falling, partial curve, poor fit]. Same read-out and setting: next, `CN(c1ccc(Cl)cc1)S(=O)(=O)c1nnc(NC(=O)C(C)(C)C)s1`: 35.5 µM [falling, partial curve, poor fit]; `CC(C)c1ccccc1NC(=O)CN1C(=O)c2ccccc2C1=O`: 0.794 µM [rising, full curve, poor fit]; `Cc1ccc(C2(C)NC(=O)N(CC(=O)Nc3nc(-c4ccccn4)cs3)C2=O)cc1` (stereo unspecified): 20.6 µM [falling, partial curve, poor fit]. As for `O=C(COc1ccc2ccccc2c1)Nc1cccnc1Cl`, the AC50 under setting [1] is 6.31 µM [rising, partial curve, poor fit]. Same read-out and setting: next, `COc1ccc(-c2nc3ccccc3c(=O)n2CCN2CCOCC2)cc1`: 0.206 µM [rising, full curve, poor fit].

The AC50 is the midpoint of the concentration-response curve, whichever way the signal moves.
